From US20250213686A1, “COMPOSITIONS AND METHODS FOR ENGINEERING TREG CELLS FOR TREATMENT OF DIABETES” (Seattle Children's Hospital (dba Seattle Children's …, priority 2021, published 2025)
At least one compound was matched to its structure with a doubt left.

Tested on: GNTI-122 cells (IL-2 pathway signalling)
Test: Rapamycin trough concentration supporting GNTI-122 activation in vitro and engraftment in vivo

CO[C@H]1C[C@@H]2CC[C@@H](C)[C@@](O)(O2)C(=O)C(=O)N2CCCC[C@H]2C(=O)O[C@H]([C@H](C)C[C@@H]2CC[C@@H](O)[C@H](OC)C2)CC(=O)[C@H](C)/C=C(\C)[C@@H](O)[C@@H](OC)C(=O)[C@H](C)C[C@H](C)/C=C/C=C/C=C/1C [rapamycin]
target trough concentration shown to support GNTI-122 activation in vitro and engraftment in vivo: approximately 4 ng/mL
